These are yes or no findings as the source states them, for the method shown. Binding seen in cells or lysates may run through a third protein. Here binding means that the protein was enriched with, or labelled near, the bait; the list need not be complete. Sequences can lack the tags named with a protein.

Protein sequences, listed by entry. Tags and fused reporters are not part of them.
UniProt Q9BQ67: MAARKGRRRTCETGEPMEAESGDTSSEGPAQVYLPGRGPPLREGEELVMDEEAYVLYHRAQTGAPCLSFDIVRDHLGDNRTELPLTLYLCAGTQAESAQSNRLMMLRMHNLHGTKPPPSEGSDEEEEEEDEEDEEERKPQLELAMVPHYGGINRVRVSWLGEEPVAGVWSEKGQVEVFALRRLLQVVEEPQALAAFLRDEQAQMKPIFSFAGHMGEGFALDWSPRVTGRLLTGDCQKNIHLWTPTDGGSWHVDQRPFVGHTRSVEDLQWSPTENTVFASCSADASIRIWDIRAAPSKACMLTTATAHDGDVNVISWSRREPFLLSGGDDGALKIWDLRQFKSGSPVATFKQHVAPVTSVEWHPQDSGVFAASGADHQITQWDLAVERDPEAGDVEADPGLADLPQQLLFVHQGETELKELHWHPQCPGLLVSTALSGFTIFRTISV
UniProt Q13242: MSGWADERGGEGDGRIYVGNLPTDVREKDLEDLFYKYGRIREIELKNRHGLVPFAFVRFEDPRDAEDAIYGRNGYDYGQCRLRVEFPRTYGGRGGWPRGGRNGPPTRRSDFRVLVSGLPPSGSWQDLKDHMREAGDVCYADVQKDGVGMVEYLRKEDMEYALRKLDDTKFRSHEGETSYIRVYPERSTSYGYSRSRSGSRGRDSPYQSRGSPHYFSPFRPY

Data on two substances can be found in publication doi:10.1101/2023.07.28.550915.

The target in this assay is T1, Flag-tagged human DVL3 (Dishevelled 3), wild type (human) (UniProt Q92997).
T1 sequence: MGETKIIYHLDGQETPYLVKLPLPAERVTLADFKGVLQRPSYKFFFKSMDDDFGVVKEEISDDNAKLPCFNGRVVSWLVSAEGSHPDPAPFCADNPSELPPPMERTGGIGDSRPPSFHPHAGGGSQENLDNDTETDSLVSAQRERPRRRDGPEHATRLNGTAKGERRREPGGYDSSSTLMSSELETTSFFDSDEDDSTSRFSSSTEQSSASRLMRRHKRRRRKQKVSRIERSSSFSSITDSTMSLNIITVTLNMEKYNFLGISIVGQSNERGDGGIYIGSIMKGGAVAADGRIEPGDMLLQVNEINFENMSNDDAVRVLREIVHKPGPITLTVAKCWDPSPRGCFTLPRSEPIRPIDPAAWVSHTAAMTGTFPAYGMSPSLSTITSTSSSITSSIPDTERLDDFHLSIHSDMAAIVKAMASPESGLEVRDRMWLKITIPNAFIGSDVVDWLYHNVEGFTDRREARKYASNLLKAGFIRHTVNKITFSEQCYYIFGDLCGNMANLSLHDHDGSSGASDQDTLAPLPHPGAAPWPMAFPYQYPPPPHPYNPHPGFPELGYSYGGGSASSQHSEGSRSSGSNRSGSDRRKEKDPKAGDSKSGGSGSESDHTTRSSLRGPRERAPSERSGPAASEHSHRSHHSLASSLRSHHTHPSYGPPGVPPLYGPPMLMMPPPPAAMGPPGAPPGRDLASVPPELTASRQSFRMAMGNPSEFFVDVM
In words: affinity purification with mass spectrometry.

In the case of GRWD1 (from UniProt Q9BQ67 1-446), the binding entry is “binds”.
The value for SRSF9 (from UniProt Q13242 1-221) was “binds”.
